Laboratory results as given in publication PMC11600263.
These are yes or no findings as the source states them, for the method shown. Binding seen in cells or lysates may run through a third protein. Some entries that bind do so weakly or less than the wild type.

Amino acid sequences for entries named in this document (tags omitted).
UniProt P35222: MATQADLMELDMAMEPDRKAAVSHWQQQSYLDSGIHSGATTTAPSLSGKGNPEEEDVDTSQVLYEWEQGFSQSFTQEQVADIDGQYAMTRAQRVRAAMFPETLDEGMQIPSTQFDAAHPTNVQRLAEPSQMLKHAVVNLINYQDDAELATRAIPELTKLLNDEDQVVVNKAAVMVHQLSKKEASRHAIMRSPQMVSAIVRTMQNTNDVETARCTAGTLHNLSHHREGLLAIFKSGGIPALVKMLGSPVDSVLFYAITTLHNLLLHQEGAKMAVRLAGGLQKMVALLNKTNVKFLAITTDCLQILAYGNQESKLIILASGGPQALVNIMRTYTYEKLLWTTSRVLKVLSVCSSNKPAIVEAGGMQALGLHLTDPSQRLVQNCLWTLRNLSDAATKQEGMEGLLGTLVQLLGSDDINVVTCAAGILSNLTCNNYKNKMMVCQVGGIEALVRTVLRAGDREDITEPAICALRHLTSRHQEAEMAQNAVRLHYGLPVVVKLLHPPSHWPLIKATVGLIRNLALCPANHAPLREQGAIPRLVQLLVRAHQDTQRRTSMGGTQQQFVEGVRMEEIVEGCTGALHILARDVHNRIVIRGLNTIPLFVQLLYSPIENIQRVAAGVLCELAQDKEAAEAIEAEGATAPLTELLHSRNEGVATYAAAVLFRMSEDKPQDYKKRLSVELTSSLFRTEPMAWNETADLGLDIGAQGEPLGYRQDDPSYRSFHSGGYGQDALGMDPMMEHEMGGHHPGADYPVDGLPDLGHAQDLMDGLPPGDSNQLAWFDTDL

Legend:
[1] = biological target: T1, delta‐catenin (CTNND1) (human (endogenous in HDFα)) (UniProt O60716); assay: co-IP; endogenous proteins of HDFα cells treated with 7Ap (7Sp as control) in serum free medium for 2 h; 1 mg lysate, 2 μg antibody, 10 μL protein‐G beads; Western blot
T1 sequence: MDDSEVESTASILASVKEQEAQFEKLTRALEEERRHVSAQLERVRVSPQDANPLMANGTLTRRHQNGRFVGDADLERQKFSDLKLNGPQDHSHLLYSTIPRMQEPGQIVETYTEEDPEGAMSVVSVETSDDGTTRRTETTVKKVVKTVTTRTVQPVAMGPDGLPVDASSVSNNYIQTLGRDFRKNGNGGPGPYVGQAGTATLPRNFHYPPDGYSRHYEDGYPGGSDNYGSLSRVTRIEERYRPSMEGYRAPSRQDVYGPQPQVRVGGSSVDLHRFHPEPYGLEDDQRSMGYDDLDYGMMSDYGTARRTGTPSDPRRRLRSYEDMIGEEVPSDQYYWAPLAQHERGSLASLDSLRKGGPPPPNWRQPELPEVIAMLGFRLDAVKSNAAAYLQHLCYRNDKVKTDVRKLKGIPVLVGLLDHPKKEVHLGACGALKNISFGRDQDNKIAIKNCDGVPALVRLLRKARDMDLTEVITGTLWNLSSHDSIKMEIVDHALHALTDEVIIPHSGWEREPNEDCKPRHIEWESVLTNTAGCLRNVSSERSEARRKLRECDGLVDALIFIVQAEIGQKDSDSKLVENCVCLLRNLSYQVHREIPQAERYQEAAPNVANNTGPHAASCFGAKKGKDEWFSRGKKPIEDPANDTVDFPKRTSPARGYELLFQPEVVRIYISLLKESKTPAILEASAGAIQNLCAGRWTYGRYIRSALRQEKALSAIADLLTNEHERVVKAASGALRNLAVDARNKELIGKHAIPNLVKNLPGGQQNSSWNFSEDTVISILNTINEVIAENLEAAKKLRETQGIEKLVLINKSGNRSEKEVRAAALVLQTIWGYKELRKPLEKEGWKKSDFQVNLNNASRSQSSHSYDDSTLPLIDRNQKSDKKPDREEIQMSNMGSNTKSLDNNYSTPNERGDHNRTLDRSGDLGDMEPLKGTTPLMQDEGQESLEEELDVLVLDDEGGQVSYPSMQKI

[2] = biological target: PDGF receptor beta (PDGFRB) (human (endogenous in HDFα)) (UniProt P09619); assay: as above

Substance	binding [1]	binding [2]
beta‐catenin (CTNNB) (from UniProt P35222 1-781)	binds	
cyclin‐dependent kinase 6 (CDK6) (from UniProt Q00534 1-326) (enzyme)	binds	binds
